From the supplement of paper PMC6411743
± gives the standard deviation of the averaged measurements. This is one part of the list.

Amino acid sequences for entries named in this document (tags omitted). A change or cut given only in a name is not applied to a line headed by its entry.
UniProt P17028: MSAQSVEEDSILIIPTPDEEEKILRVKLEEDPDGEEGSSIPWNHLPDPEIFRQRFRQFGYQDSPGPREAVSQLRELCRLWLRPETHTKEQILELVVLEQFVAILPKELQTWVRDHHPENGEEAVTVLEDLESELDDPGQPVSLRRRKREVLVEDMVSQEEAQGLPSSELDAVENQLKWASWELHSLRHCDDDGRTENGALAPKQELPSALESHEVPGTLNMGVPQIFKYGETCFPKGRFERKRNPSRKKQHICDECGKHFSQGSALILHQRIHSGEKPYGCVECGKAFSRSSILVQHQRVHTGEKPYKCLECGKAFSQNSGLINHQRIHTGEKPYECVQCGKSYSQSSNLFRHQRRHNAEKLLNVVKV
UniProt P11216: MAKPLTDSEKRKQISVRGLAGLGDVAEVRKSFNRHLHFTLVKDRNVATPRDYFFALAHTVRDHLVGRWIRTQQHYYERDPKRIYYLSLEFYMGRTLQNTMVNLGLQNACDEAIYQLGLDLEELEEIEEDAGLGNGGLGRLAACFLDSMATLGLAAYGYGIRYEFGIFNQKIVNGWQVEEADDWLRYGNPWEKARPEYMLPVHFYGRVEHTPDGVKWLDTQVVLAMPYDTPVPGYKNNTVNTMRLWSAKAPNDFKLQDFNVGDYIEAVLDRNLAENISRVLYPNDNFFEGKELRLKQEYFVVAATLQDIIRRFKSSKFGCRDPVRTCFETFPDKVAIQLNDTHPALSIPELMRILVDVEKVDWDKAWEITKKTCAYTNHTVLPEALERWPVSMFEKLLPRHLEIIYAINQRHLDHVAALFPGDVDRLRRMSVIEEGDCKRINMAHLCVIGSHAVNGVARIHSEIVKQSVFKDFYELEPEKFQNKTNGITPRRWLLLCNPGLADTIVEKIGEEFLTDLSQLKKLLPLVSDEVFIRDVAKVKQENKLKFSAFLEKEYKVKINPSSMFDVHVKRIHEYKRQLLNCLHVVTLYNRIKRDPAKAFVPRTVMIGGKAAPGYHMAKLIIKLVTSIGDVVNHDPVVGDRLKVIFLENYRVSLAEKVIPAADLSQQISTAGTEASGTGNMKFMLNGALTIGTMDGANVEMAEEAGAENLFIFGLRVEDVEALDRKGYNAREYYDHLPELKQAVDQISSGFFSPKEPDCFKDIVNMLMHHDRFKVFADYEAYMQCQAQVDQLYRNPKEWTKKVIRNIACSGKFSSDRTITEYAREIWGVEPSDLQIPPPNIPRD
UniProt P25786: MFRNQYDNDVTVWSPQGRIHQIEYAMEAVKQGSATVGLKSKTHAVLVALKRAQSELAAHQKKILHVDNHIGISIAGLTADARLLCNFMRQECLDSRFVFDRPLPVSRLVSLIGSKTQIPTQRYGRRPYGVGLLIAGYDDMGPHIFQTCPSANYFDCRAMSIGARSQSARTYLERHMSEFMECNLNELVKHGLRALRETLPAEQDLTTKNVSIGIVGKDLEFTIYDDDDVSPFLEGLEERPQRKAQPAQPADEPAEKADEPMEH
UniProt P09651: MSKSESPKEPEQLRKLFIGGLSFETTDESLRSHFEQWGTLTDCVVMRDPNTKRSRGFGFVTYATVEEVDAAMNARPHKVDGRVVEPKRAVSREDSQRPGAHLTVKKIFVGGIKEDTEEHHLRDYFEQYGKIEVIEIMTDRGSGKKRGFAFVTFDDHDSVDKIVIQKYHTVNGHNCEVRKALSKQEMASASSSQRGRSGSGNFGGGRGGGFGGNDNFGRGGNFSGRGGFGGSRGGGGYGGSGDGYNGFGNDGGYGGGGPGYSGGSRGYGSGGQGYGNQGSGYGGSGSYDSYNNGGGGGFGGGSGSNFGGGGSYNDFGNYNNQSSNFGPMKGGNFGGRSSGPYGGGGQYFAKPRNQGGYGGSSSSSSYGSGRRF
UniProt P24386: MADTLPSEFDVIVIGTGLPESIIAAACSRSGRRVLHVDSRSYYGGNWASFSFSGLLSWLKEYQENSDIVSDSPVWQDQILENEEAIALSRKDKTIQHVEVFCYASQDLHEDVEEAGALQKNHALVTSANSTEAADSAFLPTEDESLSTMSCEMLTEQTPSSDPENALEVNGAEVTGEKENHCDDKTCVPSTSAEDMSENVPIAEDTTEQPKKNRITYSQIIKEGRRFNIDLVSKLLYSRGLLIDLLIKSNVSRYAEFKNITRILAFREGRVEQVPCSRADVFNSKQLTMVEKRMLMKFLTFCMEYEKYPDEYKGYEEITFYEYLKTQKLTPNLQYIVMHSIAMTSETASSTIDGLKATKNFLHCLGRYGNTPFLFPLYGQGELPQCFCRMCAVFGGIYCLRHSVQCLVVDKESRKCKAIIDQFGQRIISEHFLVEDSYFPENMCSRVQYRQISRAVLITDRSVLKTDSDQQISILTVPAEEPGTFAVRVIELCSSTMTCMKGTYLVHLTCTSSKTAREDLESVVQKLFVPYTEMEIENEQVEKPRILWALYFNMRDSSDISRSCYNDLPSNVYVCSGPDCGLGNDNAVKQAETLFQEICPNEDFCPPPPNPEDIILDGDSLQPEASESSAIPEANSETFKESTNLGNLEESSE
UniProt P07305, whole entry: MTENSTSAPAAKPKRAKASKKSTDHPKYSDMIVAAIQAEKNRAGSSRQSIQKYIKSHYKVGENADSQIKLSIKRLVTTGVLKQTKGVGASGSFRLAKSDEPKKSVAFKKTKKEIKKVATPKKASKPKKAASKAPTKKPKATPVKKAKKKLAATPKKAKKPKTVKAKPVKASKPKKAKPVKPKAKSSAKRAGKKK
UniProt P18031: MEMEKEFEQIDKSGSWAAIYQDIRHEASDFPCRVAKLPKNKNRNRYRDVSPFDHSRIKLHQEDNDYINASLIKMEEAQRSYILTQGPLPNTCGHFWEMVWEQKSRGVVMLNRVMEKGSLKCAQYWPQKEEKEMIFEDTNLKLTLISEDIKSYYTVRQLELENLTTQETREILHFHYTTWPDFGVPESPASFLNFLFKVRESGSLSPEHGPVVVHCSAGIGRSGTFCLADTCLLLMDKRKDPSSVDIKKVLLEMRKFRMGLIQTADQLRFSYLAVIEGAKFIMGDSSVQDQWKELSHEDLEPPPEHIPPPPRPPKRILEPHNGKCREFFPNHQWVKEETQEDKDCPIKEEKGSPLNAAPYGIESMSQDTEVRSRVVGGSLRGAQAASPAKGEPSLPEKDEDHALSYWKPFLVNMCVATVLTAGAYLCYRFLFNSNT
UniProt P16949: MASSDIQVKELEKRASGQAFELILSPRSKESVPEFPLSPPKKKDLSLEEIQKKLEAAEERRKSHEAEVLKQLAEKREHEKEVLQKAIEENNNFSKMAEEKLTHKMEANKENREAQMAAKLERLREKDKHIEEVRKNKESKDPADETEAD
UniProt P15260: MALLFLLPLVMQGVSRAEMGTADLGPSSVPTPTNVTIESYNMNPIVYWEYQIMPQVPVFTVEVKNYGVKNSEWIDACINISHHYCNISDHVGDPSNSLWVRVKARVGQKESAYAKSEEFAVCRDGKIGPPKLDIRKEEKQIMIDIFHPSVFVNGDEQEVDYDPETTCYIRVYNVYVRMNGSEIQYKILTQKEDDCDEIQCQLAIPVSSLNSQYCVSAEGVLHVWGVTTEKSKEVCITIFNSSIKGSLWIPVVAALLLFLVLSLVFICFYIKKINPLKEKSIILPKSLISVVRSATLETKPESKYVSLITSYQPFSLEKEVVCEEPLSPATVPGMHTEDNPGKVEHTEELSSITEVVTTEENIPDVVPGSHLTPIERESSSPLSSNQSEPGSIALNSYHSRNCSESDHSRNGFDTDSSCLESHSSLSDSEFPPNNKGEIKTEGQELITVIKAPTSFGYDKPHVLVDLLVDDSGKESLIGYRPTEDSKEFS
UniProt P15814: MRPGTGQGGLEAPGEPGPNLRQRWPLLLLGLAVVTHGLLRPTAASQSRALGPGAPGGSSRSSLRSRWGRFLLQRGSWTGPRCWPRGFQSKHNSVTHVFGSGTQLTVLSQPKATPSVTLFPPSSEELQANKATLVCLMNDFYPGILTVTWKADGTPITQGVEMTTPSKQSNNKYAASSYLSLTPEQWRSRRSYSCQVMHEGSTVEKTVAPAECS
UniProt P15170, whole entry: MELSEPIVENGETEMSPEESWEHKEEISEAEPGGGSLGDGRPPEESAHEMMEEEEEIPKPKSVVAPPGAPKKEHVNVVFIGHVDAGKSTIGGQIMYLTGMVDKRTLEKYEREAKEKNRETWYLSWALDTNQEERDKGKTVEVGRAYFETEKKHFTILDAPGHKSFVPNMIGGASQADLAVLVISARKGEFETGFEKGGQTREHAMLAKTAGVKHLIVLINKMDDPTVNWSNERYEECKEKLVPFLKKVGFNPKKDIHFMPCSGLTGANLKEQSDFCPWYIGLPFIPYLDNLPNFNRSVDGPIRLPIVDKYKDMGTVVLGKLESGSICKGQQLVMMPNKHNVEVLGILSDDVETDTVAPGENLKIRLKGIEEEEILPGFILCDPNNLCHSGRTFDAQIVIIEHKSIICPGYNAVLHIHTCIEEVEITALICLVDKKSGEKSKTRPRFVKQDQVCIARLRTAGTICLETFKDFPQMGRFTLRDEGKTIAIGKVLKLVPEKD
UniProt P08047, whole entry: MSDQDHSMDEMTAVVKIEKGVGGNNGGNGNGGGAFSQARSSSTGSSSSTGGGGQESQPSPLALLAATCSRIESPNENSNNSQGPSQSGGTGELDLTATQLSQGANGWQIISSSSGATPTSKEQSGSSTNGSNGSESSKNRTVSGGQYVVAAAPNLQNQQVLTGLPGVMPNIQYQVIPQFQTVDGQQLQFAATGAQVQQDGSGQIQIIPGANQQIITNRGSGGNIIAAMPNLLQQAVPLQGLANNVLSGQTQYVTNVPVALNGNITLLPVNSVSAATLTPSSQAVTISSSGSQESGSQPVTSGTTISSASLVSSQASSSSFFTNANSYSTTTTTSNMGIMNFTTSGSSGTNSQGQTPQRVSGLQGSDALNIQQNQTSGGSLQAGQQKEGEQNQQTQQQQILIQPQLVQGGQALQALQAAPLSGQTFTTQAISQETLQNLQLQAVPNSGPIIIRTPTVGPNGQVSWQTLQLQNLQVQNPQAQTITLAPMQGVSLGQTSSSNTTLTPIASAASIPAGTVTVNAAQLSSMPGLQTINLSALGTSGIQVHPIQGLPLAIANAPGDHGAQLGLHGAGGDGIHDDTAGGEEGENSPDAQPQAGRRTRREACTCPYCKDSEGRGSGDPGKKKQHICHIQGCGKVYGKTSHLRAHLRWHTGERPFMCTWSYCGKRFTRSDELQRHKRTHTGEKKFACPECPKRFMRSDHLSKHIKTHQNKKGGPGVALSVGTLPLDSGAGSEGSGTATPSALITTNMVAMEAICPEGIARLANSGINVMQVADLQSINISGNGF

Compound: Nc1nc2c(ncn2[C@@H]2O[C@H](COP(=O)(O)OP(=O)(O)OP(=O)(O)O)[C@@H](O)[C@H]2O)c(=O)[nH]1 [guanosine triphosphate]
Assay: NP40-soluble protein abundance relative to vehicle (solubility fold change) (ratio); higher = more soluble protein in presence of GTP
Summary of the method: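 Values are fold changes against the detergent-processed vehicle, based on vsn-normalised intensities. Jurkat crude lysate was treated at eight concentrations from 0.1 to 10 mM (10 min at room temperature, then 3 min at 37 °C), solubilised with 0.8% NP40 and benzonase, ultracentrifuged and analysed by TMT-labelled LC-MS/MS over three independent experiments.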

Target	NP40-soluble protein abundance (concentration: 0.1mM)	NP40-soluble protein abundance (concentration: 0.5mM)	NP40-soluble protein abundance (concentration: 1mM)	NP40-soluble protein abundance (concentration: 2mM)	NP40-soluble protein abundance (concentration: 4mM)	NP40-soluble protein abundance (concentration: 6mM)	NP40-soluble protein abundance (concentration: 8mM)	NP40-soluble protein abundance (concentration: 10mM)
ZNF24 (UniProt P17028)	1 ± 0.12	1.01 ± 0.062	1.02 ± 0.11	1.02 ± 0.097	1.03 ± 0.11	1.03 ± 0.058	1.05 ± 0.086	1.07 ± 0.07
PYGB (UniProt P11216)	1.11 ± 0.12	1.19 ± 0.21	1.2 ± 0.28	1.45 ± 0.5	1.71 ± 0.63	1.78 ± 0.69	1.75 ± 0.61	1.79 ± 0.67
UniProt P25786 and related entries	1.02 ± 0.036	1.04 ± 0.085	1.07 ± 0.085	1.08 ± 0.13	1.1 ± 0.14	1.11 ± 0.15	1.1 ± 0.15	1.07 ± 0.16
UniProt P09651 and related entries	1.03 ± 0.067	1.11 ± 0.082	1.17 ± 0.11	1.16 ± 0.065	1.16 ± 0.08	1.22 ± 0.089	1.3 ± 0.22	1.25 ± 0.16
POLR2C (UniProt P19387)	1.05 ± 0.023	1.08 ± 0.044	1.09 ± 0.052	1.13 ± 0.093	1.1 ± 0.086	1.11 ± 0.086	1.15 ± 0.14	1.1 ± 0.12
CHM (UniProt P24386)	1.02 ± 0.072	1.03 ± 0.072	0.904 ± 0.011	0.895 ± 0.11	0.958 ± 0.046	0.94 ± 0.018	0.847 ± 0.069	0.875 ± 0.037
H1F0 (UniProt P07305)	0.928 ± 0.093	0.872 ± 0.11	0.982 ± 0.11	1.13 ± 0.23	0.956 ± 0.085	0.855 ± 0.15	0.842 ± 0.25	1.21 ± 0.23
PTPN1 (UniProt P18031)	0.9959 ± 0.0073	1 ± 0.018	0.944 ± 0.03	0.942 ± 0.04	0.908 ± 0.064	0.913 ± 0.043	0.906 ± 0.048	0.915 ± 0.091
STMN1 (UniProt P16949)	0.911 ± 0.0092	0.899 ± 0.048	0.994 ± 0.014	0.909 ± 0.042	0.85 ± 0.069	0.935 ± 0.1	0.971 ± 0.089	0.995 ± 0.041
IFNGR1 (UniProt P15260)	0.993 ± 0.018	0.99 ± 0.055	1.03 ± 0.052	0.993 ± 0.078	0.957 ± 0.05	0.956 ± 0.064	0.963 ± 0.033	0.969 ± 0.057
IGLL1 (UniProt P15814)	0.951 ± 0.03	0.966 ± 0.057	1.02 ± 0.013	1.0165 ± 0.001	1.02 ± 0.036	0.972 ± 0.048	0.996 ± 0.028	1.01 ± 0.036
UniProt P15170-2|P15170-3	0.903 ± 0.05	0.946 ± 0.05	0.89 ± 0.051	0.862 ± 0.048	0.839 ± 0.044	0.863 ± 0.057	0.853 ± 0.054	0.856 ± 0.051
UniProt P08047 and related entries	0.916 ± 0.06	0.939 ± 0.062	0.967 ± 0.064	0.957 ± 0.082	0.918 ± 0.079	0.963 ± 0.091	0.975 ± 0.043	1.01 ± 0.039

Whole records as entered above. Values in the order: NP40-soluble protein abundance (concentration: 0.1mM)	NP40-soluble protein abundance (concentration: 0.5mM)	NP40-soluble protein abundance (concentration: 1mM)	NP40-soluble protein abundance (concentration: 2mM)	NP40-soluble protein abundance (concentration: 4mM)	NP40-soluble protein abundance (concentration: 6mM)	NP40-soluble protein abundance (concentration: 8mM)	NP40-soluble protein abundance (concentration: 10mM)
UniProt P08047 and related entries reads 0.916 ± 0.06	0.939 ± 0.062	0.967 ± 0.064	0.957 ± 0.082	0.918 ± 0.079	0.963 ± 0.091	0.975 ± 0.043	1.01 ± 0.039
IGLL1 (UniProt P15814) reads 0.951 ± 0.03	0.966 ± 0.057	1.02 ± 0.013	1.0165 ± 0.001	1.02 ± 0.036	0.972 ± 0.048	0.996 ± 0.028	1.01 ± 0.036
